Data as given in PubChem BioAssay AID686938 (Drosophila RNAi Screening Center, 2013).
The screen tested about 23,000 reagents; this is an unselected part of those that have a named target and a result. Of all reagents, 75 (0.33%) were called active. 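Raw plate signals without normalisation; calls rest on plate z-scores that were not deposited; ratio present for only 364 wells.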 Entries without a mark were called inactive. Names joined by + are all predicted targets of the reagent. Not given: the dose of the treatment.

Assay: 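Fly genes required for calcium entry once internal stores are emptied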 (primary screen)
System: Drosophila S2R+ cells
Reagents: long dsRNA against Drosophila genes, about 0.25 µg dsRNA per well, roughly 10,000 cells
Time to read-out: 5 days of knock-down before the calcium assay
Challenge: thapsigargin (SERCA pump blocker) to empty calcium stores; entry signal taken 4 min after adding it
Read-out: 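Per-well fluo-4 fluorescence in two replicates, unnormalised, measured in resting cells and 4 min after store depletion by the SERCA blocker thapsigargin; ratio of the two present in few wells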
Direction: calcium entry signal: higher = stronger calcium signal after store depletion; resting calcium signal: higher = higher resting calcium signal
Rule for the call: 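Hit if the duplicate-averaged plate z-score for entry over resting signal is under −3; wells with weak total dye signal (Fmax z < −2) or more than 5 off-targets removed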
Meaning of the calls: active = strongly reduced calcium entry; inactive = no strong reduction

The opening 3 records, to show the layout:
| Target gene | PubChem SID | calcium entry signal, replicate 1 (fluorescence units) | calcium entry signal, replicate 2 (fluorescence units) | resting calcium signal, replicate 1 (fluorescence units) | resting calcium signal, replicate 2 (fluorescence units) |
| --- | --- | --- | --- | --- | --- |
| CG11436 | SID104197575 | 3.94e7 | 3.90e7 | 1.80e7 | 1.79e7 |
| ari-2 | SID104184464 | 3.13e7 | 5.57e7 | 1.58e7 | 2.37e7 |
| CG32236 | SID104187909 | 3.47e7 | 3.89e7 | 1.52e7 | 1.62e7 |

Results, from the start:
| Target gene | PubChem SID | calcium entry signal, replicate 1 (fluorescence units) | calcium entry signal, replicate 2 (fluorescence units) | resting calcium signal, replicate 1 (fluorescence units) | resting calcium signal, replicate 2 (fluorescence units) |
| --- | --- | --- | --- | --- | --- |
| CG11436 | SID104197575 | 3.94e7 | 3.90e7 | 1.80e7 | 1.79e7 |
| ari-2 | SID104184464 | 3.13e7 | 5.57e7 | 1.58e7 | 2.37e7 |
| CG32236 | SID104187909 | 3.47e7 | 3.89e7 | 1.52e7 | 1.62e7 |
| CG9497 | SID104183026 | 5.10e7 | – | 2.58e7 | – |
| tbc | SID104200332 | 5.47e7 | 4.99e7 | 2.67e7 | 2.18e7 |
| tbc | SID104202441 | 4.02e7 | 2.90e7 | 1.95e7 | 1.25e7 |
| Elo68beta | SID104189652 | 2.68e7 | 3.75e7 | 1.41e7 | 1.58e7 |
| Mms19 | SID104191980 | 2.69e7 | 2.67e7 | 1.18e7 | 1.29e7 |
| Fbl6 | SID104186127 | 1.94e7 | 2.64e7 | 1.02e7 | 1.34e7 |
| pk | SID104185970 | 3.25e7 | 3.69e7 | 1.62e7 | 1.72e7 |
| pk | SID104187456 | 5.58e7 | 4.09e7 | 2.32e7 | 1.74e7 |
| pk | SID104201704 | 3.01e7 | 4.81e7 | 1.53e7 | 2.53e7 |
| CG12020 | SID104188018 | 3.87e7 | 3.86e7 | 1.91e7 | 1.87e7 |
| CG42336 | SID104185065 | 4.39e7 | 5.56e7 | 2.32e7 | 2.65e7 |
| CG42336 | SID104186124 | 2.40e7 | 4.17e7 | 1.32e7 | 1.78e7 |
| CG42336 | SID104186125 | 2.32e7 | 4.17e7 | 1.25e7 | 2.18e7 |
| Sf3b1 | SID104180327 | 1.16e7 | 2.24e7 | 8.43e6 | 1.01e7 |
| CG3604 | SID104180410 | 3.42e7 | 3.30e7 | 1.89e7 | 1.62e7 |
| TTLL3B | SID104181925 | 2.99e7 | 2.93e7 | 1.43e7 | 1.39e7 |
| M7BP | SID104184845 | 2.33e7 | 4.12e7 | 1.20e7 | 1.67e7 |
| M7BP | SID104184846 | 2.58e7 | 3.12e7 | 1.27e7 | 1.48e7 |
| M7BP | SID104185724 | 3.04e7 | 1.96e7 | 1.22e7 | 9.59e6 |
| M7BP | SID104186493 | 3.30e7 | 4.00e7 | 2.01e7 | 1.86e7 |
| M7BP | SID104186608 | 4.53e7 | 3.66e7 | 2.08e7 | 1.53e7 |
| pkaap | SID104181717 | 4.81e7 | 3.33e7 | 2.06e7 | 1.57e7 |
| mRpS34 | SID104189710 | 3.85e7 | 5.28e7 | 1.67e7 | 2.21e7 |
| r-l | SID104196834 | 4.17e7 | 4.04e7 | 1.88e7 | 1.91e7 |
| r-l | SID104202143 | 3.81e7 | 3.07e7 | 1.88e7 | 1.24e7 |
| msopa | SID104191687 | 3.08e7 | 4.77e7 | 1.63e7 | 2.47e7 |
| msopa | SID104202597 | 3.48e7 | 3.77e7 | 1.79e7 | 1.69e7 |
| CG8008 | SID104186845 | 2.42e7 | 2.29e7 | 1.10e7 | 1.11e7 |
| Wdr81 | SID104182777 | 5.21e7 | – | 2.56e7 | – |
| CG13511 | SID104183945 | 3.36e7 | 3.30e7 | 1.68e7 | 1.59e7 |
| CG16775 | SID104190017 | 3.94e7 | 4.75e7 | 1.81e7 | 1.63e7 |
| peg | SID104195008 | 5.53e7 | 4.21e7 | 4.51e7 | 2.07e7 |
| CG5004 | SID104199721 | 3.48e7 | 3.37e7 | 1.83e7 | 1.45e7 |
| CG5004 | SID104199722 | 4.57e7 | 3.30e7 | 2.17e7 | 1.36e7 |
| CG5004 | SID104199915 | 2.92e7 | 3.62e7 | 1.69e7 | 1.81e7 |
| CG8004 | SID104190739 | 3.65e7 | 4.58e7 | 1.71e7 | 3.11e7 |
| Nep1 | SID104198180 | 3.31e7 | 3.05e7 | 1.46e7 | 1.38e7 |
| Nep1 | SID104198181 | 3.49e7 | 4.47e7 | 1.77e7 | 2.32e7 |
| dtr | SID104181639 | 2.13e7 | 3.78e7 | 1.08e7 | 1.58e7 |
| CG12708 | SID104199282 | 3.41e7 | 3.62e7 | 1.70e7 | 1.74e7 |
| CG31626 + CG8677 | SID104201491 | 2.11e7 | 4.47e7 | 1.02e7 | 2.08e7 |
| CG13321 | SID104186150 | 2.20e7 | 3.08e7 | 1.09e7 | 1.30e7 |
| Atg18b | SID104182900 | 3.74e7 | – | 1.94e7 | – |
| CG43191 | SID104185118 | 3.68e7 | 3.97e7 | 1.69e7 | 1.56e7 |
| comr | SID104183930 | 4.58e7 | 5.12e7 | 2.21e7 | 2.13e7 |
| Arpc2 | SID104181905 | 3.16e7 | – | 1.61e7 | – |
| CG33144 | SID104185924 | 6.27e7 | 4.71e7 | 2.57e7 | 2.02e7 |
| CG33144 | SID104186816 | 3.86e7 | 3.92e7 | 1.74e7 | 1.61e7 |
| Gyf | SID104196994 | 4.04e7 | 4.30e7 | 1.89e7 | 1.86e7 |
| aph-1 | SID104180339 | 3.97e7 | – | 1.97e7 | – |
| CCKLR-17D3 | SID104199807 | 5.47e7 | 1.88e7 | 2.21e7 | 9.45e6 |
| CCKLR-17D3 | SID104199809 | 5.36e7 | 3.81e7 | 2.36e7 | 1.57e7 |
| CIAPIN1 | SID104183351 | 5.21e7 | – | 2.69e7 | – |
| CG10116 | SID104189492 | 2.42e7 | 3.31e7 | 1.17e7 | 2.35e7 |
| dah | SID104200112 | 2.75e7 | 3.54e7 | 1.24e7 | 1.57e7 |
